## Results from one PubChem assay

From PubChem BioAssay record AID504749 (NCATS, 2011).

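A panel of P. falciparum strains inside erythrocytes is exposed to compounds for three days, then a DNA-binding dye reports the amount of parasite DNA. Each compound was titrated across a series from about 0.000037 to 29 µM. The number is the fitted AC50, the concentration giving a half-maximal change in signal; a lower value means higher potency, whether the curve shows a decrease or an increase. Calls follow the curve class and fit quality: every row here is inconclusive, covering signal-raising curves and weak, poorly fitted, partial or highest-dose-only inhibition curves.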

Values are in µM. All entries here are filed as inconclusive. These entries are mostly ones the record files as inconclusive; other results of the assay are not listed here. Potencies fitted to partial, single-point or poorly fitting curves are rough. Some entries filed as inconclusive have a full curve. The first word of each remark tells which way the curve ran; it can be opposite to the aim of the assay.

SMILES | condition | potency (µM) | curve
Cc1c(C)n(Cc2ccccc2)c2ccc(C(=O)OCCN(C)C)cc12 | GB4 | 16.94 | inhibitor, partial curve
Cc1c(C)n(Cc2ccccc2)c2ccc(C(=O)OCCN(C)C)cc12 | W2 | 19.01 | inhibitor, partial curve, poor fit
Cc1c(C)n(Cc2ccccc2)c2ccc(C(=O)OCCN(C)C)cc12 | CP215 | 9.528 | activator, single point
Cc1c(C)n(Cc2ccccc2)c2ccc(C(=O)OCCN(C)C)cc12 | ICS | 10 | inhibitor, single point
CS(=O)(=O)c1ccc(C2=C(c3ccccc3)C(=O)OC2)cc1 | CP192 | 13.46 | inhibitor, single point
CS(=O)(=O)c1ccc(C2=C(c3ccccc3)C(=O)OC2)cc1 | CP215 | 13.46 | inhibitor, single point
CS(=O)(=O)c1ccc(C2=C(c3ccccc3)C(=O)OC2)cc1 | AS120 | 2.239 | inhibitor, single point
O=C(O)c1ccccc1-c1c2ccc(=O)cc-2oc2cc(O)ccc12 | CP191 | 5.012 | activator, partial curve
O=C(O)c1ccccc1-c1c2ccc(=O)cc-2oc2cc(O)ccc12 | CP265 | 2.818 | activator, full curve
O=C(O)c1ccccc1-c1c2ccc(=O)cc-2oc2cc(O)ccc12 | ECU | 1.413 | activator, full curve
O=C(O)c1ccccc1-c1c2ccc(=O)cc-2oc2cc(O)ccc12 | CP268 | 1.51 | activator, partial curve
O=C(O)c1ccccc1-c1c2ccc(=O)cc-2oc2cc(O)ccc12 | CP194 | 1.694 | activator, single point
O=C(O)c1ccccc1-c1c2ccc(=O)cc-2oc2cc(O)ccc12 | CP252 | 1.778 | activator, full curve
O=C(O)c1ccccc1-c1c2ccc(=O)cc-2oc2cc(O)ccc12 | CP217 | 1.995 | activator, full curve
O=C(O)c1ccccc1-c1c2ccc(=O)cc-2oc2cc(O)ccc12 | CP305 | 0.2685 | activator, full curve, poor fit
O=C(O)c1ccccc1-c1c2ccc(=O)cc-2oc2cc(O)ccc12 | CP211 | 2.686 | activator, single point
O=C(O)c1ccccc1-c1c2ccc(=O)cc-2oc2cc(O)ccc12 | DIV30 | 4.256 | activator, single point
O=C(O)c1ccccc1-c1c2ccc(=O)cc-2oc2cc(O)ccc12 | TAB165 | 1 | activator, full curve
O=C(O)c1ccccc1-c1c2ccc(=O)cc-2oc2cc(O)ccc12 | PC49 | 1.585 | activator, full curve
O=C(O)c1ccccc1-c1c2ccc(=O)cc-2oc2cc(O)ccc12 | HB3 | 7.943 | activator, partial curve
O=C(O)c1ccccc1-c1c2ccc(=O)cc-2oc2cc(O)ccc12 | DIV17 | 2.393 | activator, full curve
O=C(O)c1ccccc1-c1c2ccc(=O)cc-2oc2cc(O)ccc12 | DFO2036 | 1.259 | activator, full curve
O=C(O)c1ccccc1-c1c2ccc(=O)cc-2oc2cc(O)ccc12 | P93_24 | 1.122 | activator, full curve
O=C(O)c1ccccc1-c1c2ccc(=O)cc-2oc2cc(O)ccc12 | 7G8 | 11.22 | activator, partial curve
O=C(O)c1ccccc1-c1c2ccc(=O)cc-2oc2cc(O)ccc12 | AA1029 | 1.259 | activator, full curve
CC(C)c1cccc(C(C)C)c1O | CP269 | 19.01 | inhibitor, partial curve, poor fit
CC(C)c1cccc(C(C)C)c1O | CP268 | 0.0005 | inhibitor
CC(C)c1cccc(C(C)C)c1O | GB4 | 15.1 | inhibitor, partial curve, poor fit
CC(C)c1cccc(C(C)C)c1O | CP211 | 15.1 | inhibitor, single point
CC(C)c1cccc(C(C)C)c1O | CP203 | 21.33 | inhibitor, single point
CC(C)c1cccc(C(C)C)c1O | CP297 | 15.1 | inhibitor, single point
CC(C)c1cccc(C(C)C)c1O | CP329 | 21.33 | inhibitor, partial curve, poor fit
CC(C)c1cccc(C(C)C)c1O | DIV14 | 19.01 | inhibitor, single point
CC(C)c1cccc(C(C)C)c1O | PC26 | 10.69 | inhibitor, single point
CC(C)c1cccc(C(C)C)c1O | CP291 | 13.46 | inhibitor, partial curve, poor fit
COC1CC(O[C@H]2/C(C)=C/CC3CC(C[C@]4(CCC(C)C(C5CCCCC5)O4)O3)OC(=O)[C@H]3C=C(C)/C(=N/O)C4OC/C(=C\C=C\[C@@H]2C)[C@@]43O)OC(C)C1O (stereo partly specified) | DIV30 | 13.46 | inhibitor, partial curve, poor fit
COC1CC(O[C@H]2/C(C)=C/CC3CC(C[C@]4(CCC(C)C(C5CCCCC5)O4)O3)OC(=O)[C@H]3C=C(C)/C(=N/O)C4OC/C(=C\C=C\[C@@H]2C)[C@@]43O)OC(C)C1O (stereo partly specified) | CP237 | 10 | inhibitor, single point
COC1CC(O[C@H]2/C(C)=C/CC3CC(C[C@]4(CCC(C)C(C5CCCCC5)O4)O3)OC(=O)[C@H]3C=C(C)/C(=N/O)C4OC/C(=C\C=C\[C@@H]2C)[C@@]43O)OC(C)C1O (stereo partly specified) | N140 | 11.22 | inhibitor, single point
COC1CC(O[C@H]2/C(C)=C/CC3CC(C[C@]4(CCC(C)C(C5CCCCC5)O4)O3)OC(=O)[C@H]3C=C(C)/C(=N/O)C4OC/C(=C\C=C\[C@@H]2C)[C@@]43O)OC(C)C1O (stereo partly specified) | ATS95 | 17.78 | inhibitor, single point

For reference, 4 entries once more:

SMILES,condition,potency (µM),curve
O=C(O)c1ccccc1-c1c2ccc(=O)cc-2oc2cc(O)ccc12,DIV17,2.393,"activator, full curve"
Cc1c(C)n(Cc2ccccc2)c2ccc(C(=O)OCCN(C)C)cc12,CP215,9.528,"activator, single point"
O=C(O)c1ccccc1-c1c2ccc(=O)cc-2oc2cc(O)ccc12,HB3,7.943,"activator, partial curve"
O=C(O)c1ccccc1-c1c2ccc(=O)cc-2oc2cc(O)ccc12,CP305,0.2685,"activator, full curve, poor fit"